Results as given in article PMC2686683.
No constants are given. Whether binding was seen depends on the method and setting. In cells and extracts the contact can be indirect. Some entries that bind do so weakly or less than the wild type.

Amino acid sequences for entries named in this document (tags omitted). Residues count along the entry.
GST-N terminal (NH2) cortactin fragment, residues 1-333 (Q60598, residues 1-333): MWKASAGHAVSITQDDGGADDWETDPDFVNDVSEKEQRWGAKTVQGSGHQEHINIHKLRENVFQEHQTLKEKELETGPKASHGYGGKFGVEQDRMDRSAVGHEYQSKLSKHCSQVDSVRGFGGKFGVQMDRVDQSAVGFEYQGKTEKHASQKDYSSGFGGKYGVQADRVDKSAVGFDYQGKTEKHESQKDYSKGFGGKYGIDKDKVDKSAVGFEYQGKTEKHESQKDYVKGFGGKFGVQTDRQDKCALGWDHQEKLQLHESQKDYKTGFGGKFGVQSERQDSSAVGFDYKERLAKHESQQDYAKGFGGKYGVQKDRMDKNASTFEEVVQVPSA
GST-SH3 cortactin domain, residues 458-546 (Q60598, residues 458-546): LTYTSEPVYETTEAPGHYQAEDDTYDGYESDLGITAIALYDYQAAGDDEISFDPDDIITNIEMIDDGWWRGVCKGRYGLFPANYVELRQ
UniProt Q91YD9: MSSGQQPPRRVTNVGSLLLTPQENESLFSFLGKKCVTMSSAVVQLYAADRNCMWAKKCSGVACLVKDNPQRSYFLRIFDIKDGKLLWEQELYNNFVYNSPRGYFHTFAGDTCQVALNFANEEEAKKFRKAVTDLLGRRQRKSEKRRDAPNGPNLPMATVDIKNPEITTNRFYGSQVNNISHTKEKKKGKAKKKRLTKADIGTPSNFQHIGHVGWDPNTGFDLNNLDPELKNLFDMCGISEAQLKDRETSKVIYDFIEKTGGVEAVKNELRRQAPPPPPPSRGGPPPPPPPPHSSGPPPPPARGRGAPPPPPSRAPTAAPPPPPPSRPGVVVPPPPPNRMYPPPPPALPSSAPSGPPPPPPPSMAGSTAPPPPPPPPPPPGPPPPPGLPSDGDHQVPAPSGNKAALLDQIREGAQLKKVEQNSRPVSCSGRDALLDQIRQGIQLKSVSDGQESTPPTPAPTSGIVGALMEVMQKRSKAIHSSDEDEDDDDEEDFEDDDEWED
UniProt B7UM99: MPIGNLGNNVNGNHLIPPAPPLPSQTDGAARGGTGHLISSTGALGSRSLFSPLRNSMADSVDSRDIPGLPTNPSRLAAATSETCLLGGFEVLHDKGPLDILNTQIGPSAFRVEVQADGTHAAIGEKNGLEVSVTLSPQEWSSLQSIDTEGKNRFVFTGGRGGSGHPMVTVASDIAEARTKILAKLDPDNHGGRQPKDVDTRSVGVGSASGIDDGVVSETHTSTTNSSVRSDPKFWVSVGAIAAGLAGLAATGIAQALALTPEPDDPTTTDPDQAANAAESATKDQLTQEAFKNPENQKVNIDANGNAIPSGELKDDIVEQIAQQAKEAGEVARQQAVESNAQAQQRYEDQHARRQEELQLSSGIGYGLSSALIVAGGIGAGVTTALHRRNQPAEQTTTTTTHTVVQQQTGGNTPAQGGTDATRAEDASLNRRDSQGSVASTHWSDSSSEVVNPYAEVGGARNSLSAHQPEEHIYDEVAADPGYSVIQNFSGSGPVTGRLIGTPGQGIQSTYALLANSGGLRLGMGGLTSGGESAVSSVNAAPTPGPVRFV

Assays:
[1] = biological target: GST-SH3 cortactin domain, residues 458-546 (UniProt Q60598); assay: pull-down; GST fusion proteins with clarified total cell lysates of MEFs; blotted with anti-Tir, stripped and reprobed with anti-N-WASP antibody; data not shown; only the target purified
[2] = biological target: GST-N terminal (NH2) cortactin fragment, residues 1-333 (UniProt Q60598); assay: pull-down; GST fusion proteins on GSH-beads with membrane-enriched pellets (resuspended in lysis buffer with 0.1% Triton-X100) of EPEC-infected (3 h) and uninfected WT, N-WASP-deficient and R MEFs; washed with lysis buffer diluted 1:10 in PBS 0.05% Tween 20; blotted with anti-Tir mAb; only the target purified
[3] = biological target: GST-N terminal (NH2) cortactin fragment, residues 1-333 (UniProt Q60598); assay: pull-down; GST fusion proteins with clarified total cell lysates of MEFs; blotted with anti-Tir, stripped and reprobed with anti-N-WASP antibody; data not shown; only the target purified

Substance | binding [1] | binding [2] | binding [3]
N-WASP, endogenous in WT mouse embryonic fibroblasts (from UniProt Q91YD9 1-501) | binds | – | –
Tir delivered by EPEC into infected mouse embryonic fibroblasts (fully-modified, slower-moving band) (from UniProt B7UM99 1-550) | – | binds | binds
